{"source": "patent US8715970B2", "about": "“Enzymatically catalyzed method of preparing mono-acylated polyols” (BASF SE, priority 2009, dated 2014)", "molecules": {"B1": {"name": "WT: non-mutated Candida antarctica lipase B (CALB), SEQ ID NO: 2, immobilized on carrier beads (protein, listed as Candida antarctica)", "chain": "LPSGSDPAFSQPKSVLDAGLTCQGASPSSVSKPILLVPGTGTTGPQSFDSNWIPLSAQLGYTPCWISPPPFMLNDTQVNTEYMVNAITTLYAGSGNNKLPVLTWSQGGLVAQWGLTFFPSIRSKVDRLMAFAPDYKGTVLAGPLDALAVSAPSVWQQTTGSALTTALRNAGGLTQIVPTTNLYSATDEIVQPQVSNSPLDSSYLFNGKNVQAQAVCGPLFVIDHAGSLTSQFSYVVGRSALRSTTGQARSADYGITDCNPLPANDLTPEQKVAAAALLAPAAAAIVAGPKQNCEPDLMPYARPFAVGKRTCSGIVTP", "modifications": "immobilized on carrier beads"}}, "key": {"[1]": {"test": "Enzyme selectivities and specificities towards 1,2-ethanediol with vinyl acetate or vinyl butyrate in MTBE (Example 7)", "type": "biochemical", "details": "for Specificities, kcat/KM, diol: 1,2-ethanediol", "method": "(§1) Reactions using the CALB mutants as described in Example 5 and Example 6 were run with two different straight chain primary diols: 1,2-ethanediol, ≧99.5% from MERCK and 1,4-butanediol, ≧99% from Aldrich. Two different acyl donors were used: vinyl acetate, ≧99% from Fluka and vinyl butyrate, >99% from Fluka. Decane, ≧99% from Fluka, was used as internal standard. MTBE, 99.5% from Lab-Scan was used as solvent.\n(§2) Each diol was dissolved to a concentration of 100 mM together with 1 M of the acyl donor and 20 mM decane in MTBE. Reactions were started by adding 3 ml reaction solution to a specific amount of enzyme carrier beads. Different amounts of enzyme carrier beads were used for the different reactions. For reactions with 1,2-ethanediol and vinyl acetate, 19.7 mg wild type, 22.5 mg A282L, 50.5 mg A281V, and 45.5 A281E CALB were used. For reactions with 1,2-ethanediol and vinyl butyrate, 19.3 mg wild type, 19.7 mg A282L, 40.5 mg A281V, and 40.6 A281E CALB were used. For reactions with 1,4-butanediol and vinyl acetate, 17.6 mg wild type, 22.5 mg A282L, 69 mg A281V, and 54 A281E CALB were used. For reactions with 1,4-butanediol and vinyl butyrate, 20.3 mg wild type, 25.4 mg A282L, 52.2 mg A281V, and 53 A281E CALB were used. The enzymes were evenly distributed in the reaction vials by magnetic stirrers. The vials were kept in a 29° C. water bath during the reactions for temperature control. Aliquots of 10 μl were taken, filtered through wool in a Pasteur pipette and diluted with 90 μl MTBE prior to analysis. The decane used as internal standard was present in the reaction solution throughout both reaction and analysis.\n(§3) 20 mM decane was used as internal standard in the reaction mixtures together with 100 mM diol. Aliquots were taken during the reaction by taking 10 μl of reaction sample. The samples were filtered though wool together with 90 μl MTBE, thereby any remaining enzyme was removed and the reaction samples were diluted by a factor of 10 prior to analysis.\n(§4) The reactions catalyzed by the A281V-mutant were rerun with higher amounts of enzyme carrier beads to test selectivity determinations. For the reactions with 1,2-ethanediol and vinyl acetate, 121 mg beads with A281V CALB were used. […]\n(§5) All reactions were analyzed on GC, Hewlett Packard 5890 series II. Two different 25 m×0.32 mm WCOT fused silica columns were used, depending on the different substrates and products that were analyzed. […] The response factor for each diol was determined in relationship to decane. When all diol and mono-ester had converted to di-ester, the response factor for the di-ester could be determined in relationship to decane. The concentration of mono-ester in each reaction was determined by subtracting the concentration of di-ester from the starting concentration of diol."}, "[2]": {"test": "Enzyme selectivities and specificities towards 1,4-butanediol with vinyl acetate or vinyl butyrate in MTBE (Example 7)", "type": "biochemical", "details": "for Specificities, kcat/KM, diol: 1,4-butanediol", "method": "as §1, §2, §3, §4, §5"}}, "note": "At least one read-out could not be matched to a standard name with certainty."}
{"molecule": "B1", "values": [{"measurement": "Specificities, kcat/KM, ester", "setting": "[1]; 1,2-ethanediol monoacylated by vinyl acetate", "result": 1200, "unit": "M⁻¹ s⁻¹"}, {"measurement": "Specificities, kcat/KM, ester", "setting": "[1]; 1,2-ethanediol monoacylated by vinyl butyrate", "result": 3200, "unit": "M⁻¹ s⁻¹"}, {"measurement": "Specificities, kcat/KM, diol", "setting": "[1]; vinyl acetate", "result": 1600, "unit": "M⁻¹ s⁻¹"}, {"measurement": "Specificities, kcat/KM, diol", "setting": "[1]; vinyl butyrate", "result": 1600, "unit": "M⁻¹ s⁻¹"}, {"measurement": "Specificities, kcat/KM, ester", "setting": "[2]; 1,4-butanediol monoacylated by vinyl acetate", "result": 1900, "unit": "M⁻¹ s⁻¹"}, {"measurement": "Specificities, kcat/KM, ester", "setting": "[2]; 1,4-butanediol monoacylated by vinyl butyrate", "result": 2800, "unit": "M⁻¹ s⁻¹"}, {"measurement": "Specificities, kcat/KM, diol", "setting": "[2]; vinyl acetate", "result": 900, "unit": "M⁻¹ s⁻¹"}, {"measurement": "Specificities, kcat/KM, diol", "setting": "[2]; vinyl butyrate", "result": 1400, "unit": "M⁻¹ s⁻¹"}]}
